Screening data, single-dose tests

The values are deposited in ChEMBL (CHEMBL3988442, “University of Dundee, Small-Polar-MMV Screening Library” (2021)).

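Growth of Mycobacterium tuberculosis over 4 days (cholesterol / DPPC medium with tyloxapol); the read-out is not stated. Concentration: 500 µM. Higher reads as more growth inhibition (inferred: compounds with an IC50 in retests scored well above the rest). Of about 18,000 compounds tested this way, about 900 (5%) reached 50% or more in at least one test.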

The filed quantity is “Percent Effect” (%).
The controls that fix the scale are not given in the record; negative values are as filed.
Compounds were drawn at random from those tested, without regard to their results.

structure	Percent Effect
NCCS(=O)(=O)Cc1ccccc1	7.16%
O=C(NC1CCNC1)c1ccccc1 (stereo unspecified)	-3.541%
COCCCC1(CO)CCCN(Cc2cncnc2)C1 (stereo unspecified)	4.097%
Cc1ccc(C2CNCCO2)c(C)c1 (stereo unspecified)	18.89%
NC(=O)C1CN(c2ccc3cccc(Br)c3n2)CCO1 (stereo unspecified)	10.85%
c1cc(-c2nnc(CC3CCNC3)[nH]2)ccn1 (stereo unspecified)	-18.19%
Cc1ccncc1NC(=O)Nc1cnccc1C	-13.73%
Cc1ccc(CNC2CCSC2)c(N2CCCC2)n1 (stereo unspecified)	16.96%
C[C@@]1(N)C[C@H]1c1ccccc1	26.37%
COc1ccccc1NC(=O)CN1CCCC1	-3.979%
CS(=O)(=O)N1CCCCC1CNC(=O)c1ccccc1 (stereo unspecified)	2.814%
CCC(N)c1ccc(F)cc1F (stereo unspecified)	1.718%
Cn1ccc(C(=O)N2CCc3ccccc32)cc1=O	6.19%
Cc1nnc(NC(=O)CCNC(=O)C(C)C)s1	-1.764%
CN(CCO)c1ccnc(C#N)c1	-13.09%
NS(=O)(=O)c1ccc2c(c1)CCCC2=O	47.53%
NCCn1ccccc1=O	0.9153%
CCCC1c2nccn2CCCN1C(=O)c1cnco1 (stereo unspecified)	6.582%
COc1cc(S(=O)(=O)n2ccc(C)n2)c(OC)cc1C	-7.059%
CC1CCCN(Cc2cc(=O)n(C)c(=O)n2C)CC1 (stereo unspecified)	-5.292%
CCC[C@H]1CN(C(=O)c2ccnc(NC)c2)C[C@@H]1N	3.787%
COc1c(C(=O)N2CCN(C)CC2)sc2ccccc12	13.58%
Cc1cc(C)c2cc(C(=O)NCCO)[nH]c2c1	7.371%
Cc1ccc(C(=O)NCC(C)N2CCCC2)o1 (stereo unspecified)	-6.08%
O=C(CNC(=O)c1ccco1)NCCC1=CCCCC1	15.64%
NC(=O)c1ccc(CNC(=O)OCC(F)(F)F)cc1	7.791%
Cc1nc2ncnn2c(N2CCOCC2)c1C	-4.748%
CCCC1COCCN1Cc1cc(C)n[nH]1 (stereo unspecified)	5.366%
CN1CCC(CNC(=O)c2ccccc2F)CC1	-1.563%
CN(C)[C@@H]1CN(Cc2ccccc2C#N)CC[C@@H]1CO	9.168%
COc1cccc(N2CCNCC2)c1F	1.655%
CN(C)CCOc1ccccc1CN	37%
O=C(Cc1ccccc1F)NCCNc1ncccn1	-0.01274%
N[C@@H]1CN(c2ncccn2)C[C@H]1CO	-8.485%
Cc1nc(C)c(C(=O)N2CCCC[C@H](N(C)C)C2)o1	2.835%
OCc1cccc2ncccc12	-4.3%
NC(=O)CN1CCCN(C(=O)c2ccc(F)cc2)CC1	13.59%
CC1CS(=O)(=O)CCN1Cc1ccccn1 (stereo unspecified)	-10.58%
NC(=O)c1cccc(CSc2ccncc2)c1	17.06%
CCNCCNC(=O)Cc1ccc(F)cc1F	1.329%
CCC(NC(=O)c1cnn(C(C)C)c1)c1ccncc1 (stereo unspecified)	-2.172%
CCOC(=O)C(C)Nc1ccc2oc(=O)[nH]c2c1 (stereo unspecified)	50.74%
COc1ccc(OC)c(NC(=O)COCC(F)(F)F)c1	46.15%
CC(Cn1c(=O)[nH]c2ccccc2c1=O)N1CCCC1 (stereo unspecified)	50.89%
CC(C)Oc1cccc(-c2cnn(CCC(N)=O)c2)c1	73%
O=C(c1ccncc1F)N1CCC(c2cc[nH]n2)CC1	-3.212%
COc1ncc(C)cc1N	-146%
CCN(Cc1c(C)nn(CC)c1C)CC(O)CO (stereo unspecified)	-0.7025%
Cc1n[nH]cc1C(F)(F)F	28.53%
NCc1cccc2occc12	1.995%
Cc1n[nH]c(SCCNC(=O)CC2C=CS(=O)(=O)C2)n1 (stereo unspecified)	9.604%
CN1CCC(CCNC(=O)c2cccs2)CC1	-8.538%
CC(C)C(=O)NCc1ccc(S(=O)(=O)NC2CC2)cc1	-0.9711%
CCCC(NS(N)(=O)=O)c1ccc(F)cc1F (stereo unspecified)	7.515%
Cc1n[nH]c(C)c1S(=O)(=O)N1CCC2(CCNCC2)C1	14.19%
CNC(=O)C1CCCN(C(=O)Cc2ccc(F)cc2)C1 (stereo unspecified)	-4.968%
CCC1=NOC(C(=O)N2CCC(c3nnc[nH]3)CC2)C1 (stereo unspecified)	-0.9787%
Cc1cn(-c2ccc(C#N)cc2)nc1N	-13.53%
CCCOc1ccc(CN)cc1	20.12%
O=C(c1cc(C2CC2)on1)N1CC(O)(C2CC2)C1	64.43%
CN(C)S(=O)(=O)N1CCC(C(=O)N2CCCCC2)CC1	7.532%
COCCC(C)CN (stereo unspecified)	-12.71%
O[C@@H]1CNC[C@H](O)C1	91.26%
COc1ccc(S(=O)(=O)n2cncn2)cc1C	7.04%
COCC(C)Nc1ccc2nnc(C3CC3)n2n1 (stereo unspecified)	-13.01%
COCCN(C)C[C@@H]1CN(C(=O)C2CCC2)C[C@@H]1CO	-27.52%
CCOCCC(=O)N1C[C@H](C(C)C)[C@@H](N)C1	-6.407%
CC(C)(CNC(=O)c1ccccn1)N1CC[S+]([O-])CC1	7.017%
CCC1c2ccsc2CCN1C(=O)c1ccc(CN)o1 (stereo unspecified)	53.83%
CC(=O)N1CCN(Cc2nc(N)nc(N(C)C)n2)CC1	-16.93%
Cc1nn(CCO)c(NCc2cscn2)c1C	-6.018%
CCOc1ccc(C(=O)NC2CCN(C)CC2)cc1	19.23%
O=C(CCN1CCCC(O)C1)Nc1ccccc1 (stereo unspecified)	3.85%
CCCN1CCN(C2CCNCC2)CC1	-4.052%
CNCCC(=O)NC1CC1	13.74%
NC(=O)CC1CCN(C(=O)Cc2ccc(Cl)cc2)CC1	33.57%
CN(C)C(=O)c1ccc(O)cc1	2.838%
CS(=O)(=O)N1CCCCC1CN1CCCC1=O (stereo unspecified)	-2.147%
CC(Cn1cccn1)NCc1ccncc1 (stereo unspecified)	4.075%
CN(C)C1CCCN(C(=O)c2ccc(Br)cn2)C1 (stereo unspecified)	7.785%
NCCCN1CCN(c2ccccc2F)CC1	104.7%
Cc1cc(C(=O)N[C@H]2CC[C@H](O)CC2)cc(C)n1	-16.24%
CC(NS(C)(=O)=O)C(=O)NCc1nnc2n1CCCC2 (stereo unspecified)	11.67%
CCc1n[nH]c(SCC(=O)NCCSc2cnn[nH]2)n1	0.05548%
O=C(c1cccc(F)c1)N1CCN(c2nccs2)CC1	24.44%
COCCN(CC(N)=O)C(=O)c1cc(C)c(F)cc1Cl	6.46%
CCc1cc(C(=O)NC(CO)Cc2ccccc2)[nH]n1 (stereo unspecified)	13.6%
CCn1ncnc1C(C)NC(=O)Cc1ccncc1 (stereo unspecified)	-14.14%
Nc1nc(N2CCCC2)n[nH]1	13.14%
O=C(NCCSCCCO)c1cccc2cc[nH]c12	-7.085%
Cc1ccc(CNC(=O)C2COCCO2)s1 (stereo unspecified)	-2.904%

The first 7 entries again:

* NCCS(=O)(=O)Cc1ccccc1 | 7.16%
* O=C(NC1CCNC1)c1ccccc1 (stereo unspecified) | -3.541%
* COCCCC1(CO)CCCN(Cc2cncnc2)C1 (stereo unspecified) | 4.097%
* Cc1ccc(C2CNCCO2)c(C)c1 (stereo unspecified) | 18.89%
* NC(=O)C1CN(c2ccc3cccc(Br)c3n2)CCO1 (stereo unspecified) | 10.85%
* c1cc(-c2nnc(CC3CCNC3)[nH]2)ccn1 (stereo unspecified) | -18.19%
* Cc1ccncc1NC(=O)Nc1cnccc1C | -13.73%